Test results: paper PMC12502668
No constants are given. Whether binding was seen depends on the method and setting.

What was measured:
[1] = target: SpoIVB_(75-426-S378A) (B. subtilis) (UniProt P17896); test: dynamic light scattering; Nano ZS, 25°C, 20 mM Tris pH 7.4, 200 mM NaCl, 5% glycerol; 0.10, 0.25 and 0.50 mg/mL; self-association; both purified
[2] = target: SpoIVB_(75-426-S378A) (B. subtilis) (UniProt P17896); test: SEC; Superdex 200 Increase 10/300 GL, 20 mM Tris pH 7.4, 200 mM NaCl, 5% glycerol; self-association; both purified
[3] = target: SpoIVB_(75-426-S378A) (B. subtilis) (UniProt P17896); test: SAXS; BL19U2, 283 K, 1, 2 and 3.7 mg/mL; molecular weight by SAXSMoW; self-association; both purified

binding [2]: no binding
binding [3]: no binding (tested: 3.7 mg/mL)
B1: SpoIVB_(75-426-S378A) (domain or fragment, UniProt P17896 75-426)
chain: TGKKSGESELVYDLAGFPIKKTKVHVLPDLKVIPGGQSIGVKLHSVGVLVVGFHQINTSEGKKSPGETAGIEAGDIIIEMNGQKIEKMNDVAPFIQKAGKTGESLDLLIKRDKQKIKTKLIPEKDEGEGKYRIGLYIRDSAAGIGTMTFYEPKTKKYGALGHVISDMDTKKPIVVENGEIVKSTVTSIEKGTGGNPGEKLARFSSERKTIGDINRNSPFGIFGTLHQPIQNNISDQALPVAFSTEVKKGPAEILTVIDDDKVEKFDIEIVSTTPQKFPATKGMVLKITDPRLLKETGGIVQGMAGSPIIQNGKVIGAVTHVFVNDPTSGYGVHIEWMLSEAGIDIYGKEKAS
binding [1]: no binding (tested: 0.10, 0.25 and 0.50 mg/mL)
